Source: the supplement of paper PMC3334620
Over roughly 33,000 sequences, “E-score (-0.5 to 0.5)” has its median near -0.0059; the highest 2% begin near 0.26. The list shows a part of the results.

These sequences were tested against T1, Cin5 (UniProt P40917) (assay: PBM E-score (8-mer binding enrichment) (E-score (-0.5 to 0.5)); higher = stronger / more preferred TF binding). Conditions: protein concentration: 100 nM; construct: GST-full length.
T1 sequence: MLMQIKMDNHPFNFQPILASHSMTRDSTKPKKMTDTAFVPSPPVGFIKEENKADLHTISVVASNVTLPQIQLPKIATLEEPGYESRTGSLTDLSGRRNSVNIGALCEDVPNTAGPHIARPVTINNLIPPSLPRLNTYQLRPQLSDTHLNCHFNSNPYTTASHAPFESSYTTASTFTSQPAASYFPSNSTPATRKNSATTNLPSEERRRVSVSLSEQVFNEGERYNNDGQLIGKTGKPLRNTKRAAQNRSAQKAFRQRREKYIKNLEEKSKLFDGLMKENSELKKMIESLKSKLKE
Method in brief: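 The E-score, a modified Wilcoxon-Mann-Whitney statistic, was computed by the Universal PBM Analysis Suite for every ungapped eight-base word pooled with its reverse complement. Scans behind it were normalised with masliner after bound GST-tagged yeast transcription factors were detected with fluorescent anti-GST. The proteins, at about 100-200 nM, had been applied to universal all-10-mer Agilent arrays made double-stranded by primer extension.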

Sequence	PBM E-score
TATCAGGA	0.0257
AACGCGCC	-0.0466
AAATAGTT	0.133
CAAACATC	-0.0882
CTATCTAA	0.0212
GCAGGCAA	0.00071
AGTCCAGG	-0.177
AACAAGAT	0.146
CAACCGCG	0.269
CGATGCAC	-0.0125
AAATCAAT	0.205
CGGCCCCG	-0.29
AGGGTTAC	-0.116
CTGAAAAA	-0.199
AGAACGGG	-0.0709
ACAACGTA	-0.0126
ACACCGCC	-0.0408
CCTTATTC	-0.0989
CGGTTCCA	-0.133
GCTGTCAC	-0.126
AGGGTTTC	-0.16
GATCACAC	0.00476
CACTCTAG	-0.137
CCCGGAGG	-0.377

Sequence	PBM E-score
ACCCCGTC	-0.171
ACTTAGGC	-0.265
CTGCCAAC	-0.179
GGCCCAAC	-0.0745
ACCACATG	0.143
CCGGAACA	0.145
GCTCTGAC	-0.226
TAAATGAA	0.129
ACGGCCAG	-0.027
AAAGTCAA	0.0463
AGTTAAAC	0.115
AACCATGC	0.0918
GTATGGGA	-0.207
GGATCTCA	-0.0792
CGTGATAC	0.0414
AATGCGGC	-0.00913
CCTCCCTC	-0.0631
GCAACTCC	-0.101
ATCAGATG	-0.116
GAACCCAA	-0.0818
ATTTGACG	0.049
GGTTACAC	-0.124
GAAATTGC	0.0508
CCCGAGAC	-0.112

Sequence	PBM E-score
AAACCACG	-0.00291
ACCTGCAC	-0.0537
GGGGGAAC	-0.38
CATATCGC	0.0489
CGGTGGTA	-0.0177
GTAGGTCA	-0.136
GACATCCA	-0.0638
GAGTTGGA	0.0467
GAGGCAGC	-0.103
GCCAATCA	-0.117
AGGACTGA	-0.00068
AGTCATTA	-0.0964
CGCTAAGC	0.00361
ACAGAGAC	0.0455
ACACTCGC	0.185
ACACGCTA	-0.134
GCGACTTA	-0.138
AGTCATGA	0.131
CTCCGTAC	0.0128
CGATAAAG	-0.0177
AGCCAGAG	-0.148
CAATGTAG	-0.0775
GACGTAGA	-0.189
AGGTCACC	-0.246

Reformatted: entries from further up
Sequence,PBM E-score
AACGCGCC,-0.0466
ACTTAGGC,-0.265
GGATCTCA,-0.0792
GGGGGAAC,-0.38

Carrying on.

Sequence	PBM E-score
ACCCAGCT	-0.00117
AGATCATG	0.057
ACGCCGGG	-0.16
AAGTGCAC	0.185
CCTGTCTC	-0.214
AATAATAC	0.181
TACAGGCA	-0.0233
GTGTACAC	-0.0165
CGTGTTAC	0.0926
AGGGCATA	-0.0258
GTGAGTAA	0.0772
GTATAATA	0.253
ATTGATTA	0.317
ATTAAATC	0.205
ACGTCGCC	-0.123
GTCCTAAA	-0.0994
ACCGGGGG	-0.337
ACCCTTTG	-0.164
CCACCAGG	-0.278
AGTAGGGC	-0.0574
CGTTTTAC	-0.058
AACGGGAT	0.0784
